The record followed here is publication PMC12667517, “Gigaxonin Potentiates Antiviral Innate Immune Responses by Targeting cGAS and TREX1” (Advanced Science, 2025).

No constants are given. Whether binding was seen depends on the method and setting. In cells and extracts the contact can be indirect. A result given as binding can be weak or reduced; the word gives no strength. Tags and fused reporters may be left off the sequences shown.

For this assay, the target named is gigaxonin kelch repeats (Ke) (human). Description: co-IP; HEK293T cells transfected with tagged plasmids; NP-40 lysis buffer (150 mM NaCl, 1% NP-40, 20 mM Tris-HCl pH 7.4), Protein G Sepharose 2 h, washes with 0.5 M NaCl; for TREX1 the cells were treated with MG132 for 6 h.

B1: Flag-TREX1 (protein, UniProt Q9NSU2-3 1-314)
chain: MGSQALPPGPMQTLIFFDMEATGLPFSQPKVTELCLLAVHRCALESPPTSQGPPPTVPPPPRVVDKLSLCVAPGKACSPAASEITGLSTAVLAAHGRQCFDDNLANLLLAFLRRQPQPWCLVAHNGDRYDFPLLQAELAMLGLTSALDGAFCVDSITALKALERASSPSEHGPRKSYSLGSIYTRLYGQSPPDSHTAEGDVLALLSICQWRPQALLRWVDAHARPFGTIRPMYGVTASARTKPRPSAVTTTAHLATTRNTSPSLGESRGTKDLPPVKDPGALSREGLLAPLGLLAILTLAVATLYGLSLATPGE
As for B1, the binding entry is on record as “binds”.
